Data published in US10563263B2, “Genetic polymorphisms associated with statin response and cardiovascular diseases, methods of detection and uses thereof” (CELERA CORPORATION, priority 2010, dated 2020).
Further values from the same series stand in other lists.

Test system: CHD
Test: Meta-analysis of CARE and WOSCOPS combined, synergy index, CHD endpoint
Assay type: in vivo, human
Excerpt: Tables 4-5 provide meta-analyses of CARE and WOSCOPS combined (2nd section of each table) for two endpoints (CHD and CVD) and three genetic models (dominant, recessive, and additive), as well as logistic regression analyses of CARE (3rd section of each table) and WOSCOPS (4th section of each table) individually.
Tables 12 and 17 provide results of meta-analysis of the CARE and WOSCOPS sample sets combined by direct genotyping and by imputing genotypes.
“P” indicates the p-value, and “P(R)” (or “P.R.”) indicates the p-value random effect. Both of these are p-values corresponding to a statistical test of whether the combined synergy index is equal to one but use different assumptions to derive the p-value. “P” is calculated using a fixed effects model, and “P(R)” is calculated using a random effects model.
“OR” indicates the odds ratio (synergy index) calculated from a fixed effects model, and “OR(R)” (or “OR.R.”) indicates the odds ratio (synergy index) calculated from a random effects model.

CC[C@H](C)C(=O)O[C@H]1C[C@H](O)C=C2C=C[C@H](C)[C@H](CC[C@@H](O)C[C@@H](O)CC(=O)O)[C@H]21 [Pravastatin, pravastatin]
OR(R) (rs8026245 allele G GENOTYPIC Imputed, P(R) 0.0001769): 3.0849
OR (rs8026245 allele G RECESSIVE Imputed, P 0.0001739): 3.0436
OR(R) (rs8026245 allele G RECESSIVE Imputed, P(R) 0.0001739): 3.0436
OR (rs8060725 allele A ADDITIVE Genotyped, P 0.001967): 0.7414
OR(R) (rs8060725 allele A ADDITIVE Genotyped, P(R) 0.001967): 0.7414
OR (rs8103016 allele A ADDITIVE Genotyped, P 1.97E−05): 1.5542
OR(R) (rs8103016 allele A ADDITIVE Genotyped, P(R) 1.97E−05): 1.5542
OR (rs8103016 allele A DOMINANT Genotyped, P 5.37E−05): 1.6315
OR(R) (rs8103016 allele A DOMINANT Genotyped, P(R) 5.37E−05): 1.6315
OR (rs8104182 allele G ADDITIVE Imputed, P 8.91E−05): 1.5032
OR(R) (rs8104182 allele G ADDITIVE Imputed, P(R) 8.91E−05): 1.5032
OR (rs8104182 allele G DOMINANT Imputed, P 0.000187): 1.5764
OR(R) (rs8104182 allele G DOMINANT Imputed, P(R) 0.000187): 1.5764
OR(R) (rs8129461 allele G ADDITIVE Imputed, P(R) 0.002668): 0.4555
OR(R) (rs8129461 allele G DOMINANT Imputed, P(R) 0.01352): 0.4432
OR(R) (rs8130021 allele G ADDITIVE Imputed, P(R) 0.002668): 0.4555
OR(R) (rs8130021 allele G DOMINANT Imputed, P(R) 0.01352): 0.4432
OR (rs9284851 allele A GENOTYPIC Imputed, P 6.86E−05): 2.0519
OR(R) (rs9284851 allele A GENOTYPIC Imputed, P(R) 6.86E−05): 2.0519
Meta-analysis OR (rs9292827 allele A vs G (ref)): 0.34
OR (rs9293464 allele T RECESSIVE Imputed, P 3.03E−05): 0.5422
OR(R) (rs9293464 allele T RECESSIVE Imputed, P(R) 3.03E−05): 0.5422
OR (rs9295154 allele G DOMINANT Genotyped, P 0.0003436): 1.5908
OR(R) (rs9295154 allele G DOMINANT Genotyped, P(R) 0.0007175): 1.5981
OR (rs9310221 allele A DOMINANT Imputed, P 6.72E−05): 1.6779
OR(R) (rs9310221 allele A DOMINANT Imputed, P(R) 6.93E−05): 1.6777
OR (rs9310699 allele T GENOTYPIC Genotyped, P 7.91E−05): 2.0683
OR(R) (rs9310699 allele T GENOTYPIC Genotyped, P(R) 7.91E−05): 2.0683
OR (rs9310700 allele C ADDITIVE Imputed, P 8.64E−05): 1.4077
OR(R) (rs9310700 allele C ADDITIVE Imputed, P(R) 8.64E−05): 1.4077
OR (rs9310700 allele C GENOTYPIC Imputed, P 3.31E−05): 2.2015
OR(R) (rs9310700 allele C GENOTYPIC Imputed, P(R) 3.31E−05): 2.2015
OR (rs9310701 allele G GENOTYPIC Imputed, P 7.67E−05): 2.0358
OR(R) (rs9310701 allele G GENOTYPIC Imputed, P(R) 7.67E−05): 2.0358
OR (rs9310704 allele G GENOTYPIC Imputed, P 4.87E−05): 2.1011
OR(R) (rs9310704 allele G GENOTYPIC Imputed, P(R) 4.87E−05): 2.1011
OR (rs9319185 allele C GENOTYPIC Imputed, P 5.38E−05): 2.2836
OR(R) (rs9319185 allele C GENOTYPIC Imputed, P(R) 5.38E−05): 2.2836
OR (rs9319186 allele T GENOTYPIC Imputed, P 7.93E−05): 2.2431
OR(R) (rs9319186 allele T GENOTYPIC Imputed, P(R) 7.93E−05): 2.2431
OR (rs9327555 allele T DOMINANT Imputed, P 0.000699): 0.6712
OR(R) (rs9327555 allele T DOMINANT Imputed, P(R) 0.000699): 0.6712
OR (rs9403367 allele C DOMINANT Imputed, P 6.11E−05): 0.6205
OR(R) (rs9403367 allele C DOMINANT Imputed, P(R) 6.11E−05): 0.6205
OR (rs9419608 allele G RECESSIVE Imputed, P 4.08E−05): 1.7425
OR(R) (rs9419608 allele G RECESSIVE Imputed, P(R) 4.08E−05): 1.7425
OR (rs9426437 allele T DOMINANT Imputed, P 5.00E−05): 0.607
OR(R) (rs9426437 allele T DOMINANT Imputed, P(R) 5.00E−05): 0.607
OR (rs9454967 allele G DOMINANT Imputed, P 5.94E−05): 1.9576
OR(R) (rs9454967 allele G DOMINANT Imputed, P(R) 5.94E−05): 1.9576
Meta-analysis OR (rs9487284 allele A vs G (ref)): 0.64
OR (rs9635511 allele T DOMINANT Imputed, P 7.73E−05): 0.618
OR(R) (rs9635511 allele T DOMINANT Imputed, P(R) 7.73E−05): 0.618
OR (rs9812206 allele G ADDITIVE Imputed, P 5.80E−06): 0.5122
OR(R) (rs9812206 allele G ADDITIVE Imputed, P(R) 5.80E−06): 0.5122
OR (rs9812206 allele G DOMINANT Imputed, P 4.29E−06): 0.4876
OR(R) (rs9812206 allele G DOMINANT Imputed, P(R) 4.29E−06): 0.4876
OR (rs9813552 allele G ADDITIVE Imputed, P 4.13E−05): 0.5495
OR(R) (rs9813552 allele G ADDITIVE Imputed, P(R) 4.13E−05): 0.5495
OR (rs9813552 allele G DOMINANT Imputed, P 3.19E−05): 0.5265
OR(R) (rs9813552 allele G DOMINANT Imputed, P(R) 3.19E−05): 0.5265
OR (rs9815037 allele T ADDITIVE Imputed, P 1.99E−05): 0.5261
OR(R) (rs9815037 allele T ADDITIVE Imputed, P(R) 1.99E−05): 0.5261
OR (rs9815037 allele T DOMINANT Imputed, P 1.13E−05): 0.4982
OR(R) (rs9815037 allele T DOMINANT Imputed, P(R) 1.13E−05): 0.4982
OR (rs9819583 allele T GENOTYPIC Imputed, P 7.12E−05): 2.0778
OR(R) (rs9819583 allele T GENOTYPIC Imputed, P(R) 7.12E−05): 2.0778
OR (rs9825349 allele A ADDITIVE Imputed, P 1.98E−05): 0.5259
OR(R) (rs9825349 allele A ADDITIVE Imputed, P(R) 1.98E−05): 0.5259
OR (rs9825349 allele A DOMINANT Imputed, P 1.13E−05): 0.4982
OR(R) (rs9825349 allele A DOMINANT Imputed, P(R) 1.13E−05): 0.4982
OR (rs9833118 allele G ADDITIVE Imputed, P 9.63E−05): 1.3977
OR(R) (rs9833118 allele G ADDITIVE Imputed, P(R) 9.63E−05): 1.3977
OR (rs9833118 allele G GENOTYPIC Imputed, P 5.01E−05): 2.1101
OR(R) (rs9833118 allele G GENOTYPIC Imputed, P(R) 5.01E−05): 2.1101
OR (rs9834217 allele T ADDITIVE Imputed, P 2.21E−05): 0.5279
OR(R) (rs9834217 allele T ADDITIVE Imputed, P(R) 2.21E−05): 0.5279
OR (rs9834217 allele T DOMINANT Imputed, P 1.26E−05): 0.5002
OR(R) (rs9834217 allele T DOMINANT Imputed, P(R) 1.26E−05): 0.5002
OR (rs9838563 allele C GENOTYPIC Imputed, P 7.67E−05): 2.0358
OR(R) (rs9838563 allele C GENOTYPIC Imputed, P(R) 7.67E−05): 2.0358
OR (rs9840460 allele T ADDITIVE Imputed, P 2.08E−05): 0.5268
OR(R) (rs9840460 allele T ADDITIVE Imputed, P(R) 2.08E−05): 0.5268
OR (rs9840460 allele T DOMINANT Imputed, P 1.18E−05): 0.499
OR(R) (rs9840460 allele T DOMINANT Imputed, P(R) 1.18E−05): 0.499
OR (rs9840756 allele A ADDITIVE Imputed, P 2.08E−05): 0.5268
OR(R) (rs9840756 allele A ADDITIVE Imputed, P(R) 2.08E−05): 0.5268
OR (rs9840756 allele A DOMINANT Imputed, P 1.18E−05): 0.499
OR(R) (rs9840756 allele A DOMINANT Imputed, P(R) 1.18E−05): 0.499
OR (rs9847999 allele C GENOTYPIC Imputed, P 9.15E−05): 2.0254
OR(R) (rs9847999 allele C GENOTYPIC Imputed, P(R) 9.15E−05): 2.0254
Meta-analysis OR (rs9859901 allele A vs C (ref)): 0.52
OR (rs9864769 allele C GENOTYPIC Imputed, P 7.67E−05): 2.0358
OR(R) (rs9864769 allele C GENOTYPIC Imputed, P(R) 7.67E−05): 2.0358
OR (rs9866421 allele C RECESSIVE Genotyped, P 0.0009027): 0.6009
OR(R) (rs9866421 allele C RECESSIVE Genotyped, P(R) 0.0009027): 0.6009
OR (rs9881685 allele A ADDITIVE Imputed, P 5.80E−06): 0.5122
OR(R) (rs9881685 allele A ADDITIVE Imputed, P(R) 5.80E−06): 0.5122
